Source: PubChem BioAssay AID743266 (National Center for Advancing Translational Sciences (NCATS), 2014)
Screen size: about 410,000 compounds; about 310 (0.076%) were called active. The inconclusive results got no clear call from the source; some entries with a clear call stand among them for comparison. Calls come from the whole dose curve; as a rule, active = well fitted activation curve with a large enough effect; inconclusive = small, poorly fitted or top-dose-only effect, or another doubt; inactive = no such curve, though single readings can be large or run the other way. A potency beside an inconclusive call is a rough fit, not a confirmed value.
Note: nearly all actives have a fitted effect of over 55% in size.
Potency is the fitted concentration of half-maximal effect.

Sequences of proteins named here, by UniProt entry; tags and fusion partners are left off.
UniProt Q03431, whole entry, looked up: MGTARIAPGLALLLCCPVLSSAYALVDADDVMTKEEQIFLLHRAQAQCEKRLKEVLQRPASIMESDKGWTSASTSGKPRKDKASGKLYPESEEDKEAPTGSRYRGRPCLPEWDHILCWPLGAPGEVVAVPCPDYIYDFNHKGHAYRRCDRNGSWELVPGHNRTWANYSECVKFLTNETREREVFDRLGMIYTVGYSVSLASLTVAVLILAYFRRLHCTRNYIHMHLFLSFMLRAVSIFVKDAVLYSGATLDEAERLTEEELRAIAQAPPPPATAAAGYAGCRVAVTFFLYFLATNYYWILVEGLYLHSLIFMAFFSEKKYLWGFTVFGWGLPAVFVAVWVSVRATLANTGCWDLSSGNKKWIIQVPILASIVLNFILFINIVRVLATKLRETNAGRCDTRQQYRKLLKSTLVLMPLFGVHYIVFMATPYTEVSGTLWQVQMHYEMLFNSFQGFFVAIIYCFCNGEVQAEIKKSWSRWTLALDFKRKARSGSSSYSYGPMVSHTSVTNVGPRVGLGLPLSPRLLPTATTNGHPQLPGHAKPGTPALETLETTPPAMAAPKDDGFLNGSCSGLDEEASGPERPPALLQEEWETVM

Each compound was assayed against Parathyroid hormone/parathyroid hormone-related peptide receptor (Homo sapiens) (UniProt Q03431) (assay: qHTS for PTHR1 Agonists: Primary Screen). Conditions: HEK293 GP2 PTHR1 cells, GloSensor cAMP luminescence, 1 h; activation: at 115 µM (top of the series) unless noted; series mostly up to 115 µM.
Outline: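 HEK-293-derived GP2 cells expressing PTHR1 and a GloSensor cAMP reporter, 3,000/well, plated overnight, given luciferin plus IBMX (each 0.5 mM as added) for 1 h at 37 °C, then compound for 1 h at 37 °C. Luminescence was read after 15 min at room temperature.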
For `CC(C)CC(=O)NC1(C(F)(F)F)C(=O)Nc2c1c(=O)[nH]c(=O)n2Cc1ccco1` (centres undefined), the Potency was inconclusive: 44.7 µM [activator, single point]. `O=C(CN1CCN(CC(=O)c2ccccc2)CC1)c1ccccc1` was tested, and the activation was inconclusive: 34.5% [activator]. `Cc1ccc(C(=O)NCc2ccco2)cc1S(=O)(=O)Nc1cccc(C)c1C` was tested, and the Potency was inconclusive: 39.8 µM [activator, single point]. With `CCc1cccc(C)c1N(C(=O)Cn1c(CO)nc2ccccc21)C(C)COC` (centres undefined) the Potency was inconclusive: 39.8 µM [activator, single point]. In the case of `CN(CC(=O)NC1CCCc2ccccc21)C1CCCCC1` (centres undefined), the Potency is reported as inconclusive: 126 µM [activator, single point]. For `CCc1cccc(CC)c1NC(=S)NCCc1c(C)[nH]c2ccccc12`, the “activation” value was inactive: -14.5%. In the case of `C[C@H](CO)N1C[C@H](C)[C@H](CN(C)C(=O)Nc2ccc(N3CCN(C)CC3)cc2)OCc2cnnn2CCCC1=O`, the “activation” value is reported as inactive: -21.8%. For `COc1cc(NC(=O)Nc2ccccc2OC)c(OC)cc1NC(=O)CN1CCCCC1`, the “outcome” value was “inactive [at 57.5 µM]”. With `CCCCNC(=O)/C(C#N)=C/c1cccnc1` the Potency was inconclusive: 35.5 µM [activator, full curve, poor fit]. With `CC(=O)c1c(C)oc2ccc(NS(=O)(=O)c3ccc(C)cc3)cc12` the “activation” value was inactive: -16.2%. In the case of `CC(=O)Nc1ccc(NC(=O)C(NC(=O)C2CCC(C)CC2)C(C)C)cc1` (centres undefined), the Potency is reported as inconclusive: 50.1 µM [activator, partial curve, poor fit]. In the case of `CC(=O)C(=Cc1cccc(C#N)c1)C(=O)c1ccccc1`, the “activation” value is reported as inactive: -12.9%. With `CCCCN(C(=O)CC1CCCC1)c1c(N)n(CC(C)C)c(=O)[nH]c1=O` the Potency was inconclusive: 100 µM [activator, single point]. In the case of `O=C(Nc1ccccc1C(F)(F)F)C1(S(=O)(=O)c2ccc(Cl)cc2)CC1`, the “activation” value is reported as inactive: -2.49%. `Cc1c(Cl)cccc1NC(=O)Nc1nnc(N(C)C2CCCCC2)s1` was tested, and the Potency was inconclusive: 44.7 µM [activator, partial curve, poor fit]. In the case of `COC(=O)c1ccccc1NC(=O)CN1C(=O)CSC1=O`, the Potency is reported as inconclusive: 31.6 µM [activator, full curve]. For `Nc1cc(=O)[nH]c2nnc(SCC(=O)Nc3cccc4ccccc34)n12`, the Potency was inconclusive: 89.1 µM [activator, single point]. In the case of `COC(=O)c1ccc(C(=O)Nc2cc(Cl)ccc2Cl)cc1NC(=O)c1ccccc1C`, the Potency is reported as inconclusive: 126 µM [activator, single point]. `CC1CCC/C=C/C(=O)c2c(O)cc(O)cc2CC(=O)O1` (centres undefined) was tested, and the “activation” value was inactive: -96.3%. With `CC1CCN(C(=O)c2ccc3c(c2NCCO)C(=O)c2ccccc2C3=O)CC1` the “activation” value was inactive: -18.5%. For `COc1ccc(-c2cn3c(n2)sc2cc(C(=O)NC(C)C45CC6CC(CC(C6)C4)C5)ccc23)cc1` (centres undefined), the Potency was inconclusive: 141 µM [activator, single point]. For `O=C(Nc1ccccc1)Nc1ccc(-n2ccc(C(F)(F)F)n2)cc1`, the “activation” value was inactive: -1.55%. `O=[N+]([O-])c1cccc(S(=O)(=O)Nc2nc3ccccc3nc2Nc2cccc(S(=O)(=O)N3CCCCC3)c2)c1` was tested, and the “activation” value was inactive: -45.2%. For `CC1(CC(=O)N/N=C/c2cc(Br)c(O)cc2O)OCCO1`, the Potency was inconclusive: 35.5 µM [activator, single point]. In the case of `O=C(O)C1=C[C@H](c2csc3ccccc23)C[C@H](OCc2ccc(CO)cc2)O1`, the “activation” value is reported as inactive: 14.6%. In the case of `CC(=O)N(CC1CCCO1)C1(C(=O)NC2CCCC2)CCCCC1` (centres undefined), the Potency is reported as inconclusive: 31.6 µM [activator, partial curve, poor fit]. For `Cc1ccc(S(=O)(=O)N2[C@@H](c3ccc(Br)cc3)C(C(=O)O)=CC[C@H]2c2ccc(Cl)c(Cl)c2)cc1`, the “outcome” value was “inactive”. `Cc1ccc(OCC(=O)NC2CCCC(C)C2C)c([N+](=O)[O-])n1` (centres undefined) was tested, and the “activation” value was inactive: -25.9%. `Cc1ccc(Cl)cc1NC(=O)CCc1c(C)nc2c3cccnc3nn2c1C` was tested, and the Potency was inconclusive: 44.7 µM [activator, partial curve, poor fit]. With `CCc1c(C)sc2nc(C(C)C)nc(SCC(=O)N3CCc4ccccc4C3)c12` the “activation” value was inactive: -31.1%. With `CC[C@@H](C)C(NC(=O)OC(C)(C)C)c1cn([C@@H](Cc2cc3ccccc3[nH]2)C(=O)N2CCN(C(=O)OC(C)(C)C)CC2)nn1` (some centres undefined) the “outcome” value was “inactive”. For `Cc1ccc(Nc2nnc(SCC(=O)Nc3ccccc3[N+](=O)[O-])s2)cc1`, the “activation” value was inactive: -90.7%. With `COCCN(Cc1nnc(-c2cccs2)o1)C(=O)c1cccc(S(=O)(=O)N2CCOCC2)c1` the Potency was inconclusive: 158 µM [activator, single point]. With `O=C(Oc1cccc2cccnc12)c1cccc([N+](=O)[O-])c1` the “activation” value was inactive: 1.64%. For `COc1ccc(Cl)cc1C(=O)Nc1cccc2ncccc12`, the Potency was inconclusive: 20 µM [activator, partial curve, poor fit]. With `C[C@@H]1CN([C@@H](C)CO)C(=O)CCCn2nncc2CO[C@@H]1CN(C)C(=O)c1ccc(N2CCN(C)CC2)cc1` the “activation” value was inactive: -24.7%. With `COCCn1c(SCC(=O)N2CCCC2)nnc1C(C)C` the “outcome” value was “inactive [at 57.5 µM]”. `O=C(Nc1cccc2ccccc12)c1cc2c(cc1Br)OCO2` was tested, and the Potency was inconclusive: 89.1 µM [activator, partial curve, poor fit]. For `CC(=O)Nc1ccc(NC(=O)c2c(C)nn(Cc3ccccc3Cl)c2C)cc1`, the Potency was inconclusive: 7.08 µM [activator, full curve, poor fit]. For `CCOC(=O)Cn1c(=O)c2c(nc(N3CCOCC3)n2Cc2ccccc2)n(C)c1=O`, the “outcome” value was “inactive”. `Cc1nnc(NC(=O)NC(C)N2C(=O)C3C4C=CC(C4)C3C2=O)s1` (centres undefined) was tested, and the Potency was inconclusive: 35.5 µM [activator, single point]. With `CN1CCN(CCCN(Cc2ccco2)C(=S)Nc2ccc(Cl)cc2)CC1` the Potency was inconclusive: 0.767 µM [activator, full curve, poor fit]. For `CS(=O)(=O)N(CC(=O)N1CCCCCC1)c1cccc(Br)c1`, the Potency was inconclusive: 63.1 µM [activator, single point]. In the case of `O=C1NC[C@H](Cc2ccc(O)cc2)N(C[C@@H]2CCCN2C[C@H](Cc2ccccc2)N2C[C@H](Cc3ccc(O)cc3)N(CC3CCCCCC3)C(=O)C2=O)C1=O`, the activation is reported as inconclusive: 52.7% [activator].
